Experimental data taken from US20030083261A1, “Class of 12mer peptides that inhibit the function of the mitotic check point protein Mad2” (priority 2001, published 2003).
Results are given in words; binding and its absence hold for the method and conditions named. Some entries that bind do so weakly or less than the wild type. Sequences can lack the tags named with a protein.

Protein sequences, listed by entry. Tags and fused reporters are not part of them.
UniProt Q13257: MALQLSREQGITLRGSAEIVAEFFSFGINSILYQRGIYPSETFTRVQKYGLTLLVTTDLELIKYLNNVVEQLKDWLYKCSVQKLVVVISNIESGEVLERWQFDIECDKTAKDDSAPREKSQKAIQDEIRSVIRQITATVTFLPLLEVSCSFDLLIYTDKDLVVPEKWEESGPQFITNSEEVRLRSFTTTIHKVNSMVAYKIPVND

What was measured:
[1] = target: Mad2 protein (mitotic checkpoint protein Mad2, purified recombinant) (UniProt Q13257); test: NMR HSQC competition on 15N-Mad2, competitors Cdc20P1 and MBP1
[2] = target: Mad2 protein (mitotic checkpoint protein Mad2, purified recombinant) (UniProt Q13257); test: NMR HSQC of Mad2 with MBP2

- binding [1]: binds
- binding [2]: binds
Binder: DARIIKLPVPKP [MBP2 (Mad2-binding peptide 2, Cdc20-like peptide)]
